Results deposited as PubChem BioAssay AID504764 (Drosophila RNAi Screening Center, 2011)

Test: 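Knock-downs that raise or lower a Notch target reporter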 (primary screen)
System: Drosophila Kc167 cells
Reagents: long dsRNA against Drosophila genes
Timing: about 5 days (4 days dsRNA, then 24 h after transfection)
Treatment: transfection of constitutively active membrane-tethered Notch lacking the extracellular domain, read 24 h later
Measured: 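Light from a Notch-responsive E(spl)m3 luciferase reporter under active Notch, with control-promoter and no-Notch reporter wells to normalise; raw counts from paired wells a and b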
Direction: induced reporter light, run 1, well a and induced reporter light, run 1, well b: higher = more light from the Notch target reporter with active Notch; control promoter light, run 1, well a and control promoter light, run 1, well b: higher = more light from the viral control promoter (cell number, transfection, viability); uninduced reporter light, run 1, well a: higher = more light from the Notch target reporter without active Notch
Rule for the call: 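Hit if the duplicate-averaged log2 ratio of induced to control-promoter light gives a plate-wise z beyond ±2, or induced to uninduced beyond ±1.8; weak-control or discordant-duplicate wells dropped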
Calls: active = modifier hit (raised or lowered Notch signal); inactive = not a hit
The screen tested about 22,000 reagents; shown is a random part of those that have a named target and a result. Of all reagents, 403 (1.9%) are marked active. 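Unnormalised raw counts per well; ratio z-scores behind the hit calls and whether each hit raises or lowers signal are not deposited.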 Reagents against one gene are numbered here. Not stated in the record: the amount of reagent.

CR42785 (GeneID 10178921) → induced reporter light, run 1, well a: 51125; induced reporter light, run 1, well b: 71100; control promoter light, run 1, well a: 1.09e5; control promoter light, run 1, well b: 1.19e5; uninduced reporter light, run 1, well a: 3555; outcome: inactive
RpL14 (GeneID 38983) → induced reporter light, run 1, well a: 10020; induced reporter light, run 1, well b: 10195; control promoter light, run 1, well a: 13865; control promoter light, run 1, well b: 14850; uninduced reporter light, run 1, well a: 700; outcome: inactive
lmd (GeneID 42717) → induced reporter light, run 1, well a: 1.62e5; induced reporter light, run 1, well b: 1.87e5; control promoter light, run 1, well a: 2.17e5; control promoter light, run 1, well b: 2.25e5; uninduced reporter light, run 1, well a: 12755; outcome: inactive
Ir64a (GeneID 38616) #1 → induced reporter light, run 1, well a: 77735; induced reporter light, run 1, well b: 60255; control promoter light, run 1, well a: 93260; control promoter light, run 1, well b: 60815; uninduced reporter light, run 1, well a: 6925; outcome: inactive
Ir64a (GeneID 38616) #2 → induced reporter light, run 1, well a: 2.62e5; induced reporter light, run 1, well b: 2.56e5; control promoter light, run 1, well a: 2.71e5; control promoter light, run 1, well b: 3.37e5; uninduced reporter light, run 1, well a: 19100; outcome: inactive
GstE12 (GeneID 37960) → induced reporter light, run 1, well a: 1.78e5; induced reporter light, run 1, well b: 1.51e5; control promoter light, run 1, well a: 2.11e5; control promoter light, run 1, well b: 1.97e5; uninduced reporter light, run 1, well a: 13690; outcome: inactive
htl (GeneID 42160) → induced reporter light, run 1, well a: 1.40e5; induced reporter light, run 1, well b: 1.77e5; control promoter light, run 1, well a: 2.07e5; control promoter light, run 1, well b: 1.91e5; uninduced reporter light, run 1, well a: 16510; outcome: inactive
CG10505 (GeneID 37428) → induced reporter light, run 1, well a: 55835; induced reporter light, run 1, well b: 44175; control promoter light, run 1, well a: 44245; control promoter light, run 1, well b: 66620; uninduced reporter light, run 1, well a: 2930; outcome: inactive
NimC4 (GeneID 34824) → induced reporter light, run 1, well a: 1.25e5; induced reporter light, run 1, well b: 1.30e5; control promoter light, run 1, well a: 1.62e5; control promoter light, run 1, well b: 1.61e5; uninduced reporter light, run 1, well a: 11705; outcome: inactive
Ald2 (GeneID 43189) → induced reporter light, run 1, well a: 1.56e5; induced reporter light, run 1, well b: 1.55e5; control promoter light, run 1, well a: 1.94e5; control promoter light, run 1, well b: 2.12e5; uninduced reporter light, run 1, well a: 13505; outcome: inactive
CG9257 (GeneID 35375) → induced reporter light, run 1, well a: 50745; induced reporter light, run 1, well b: 26260; control promoter light, run 1, well a: 22470; control promoter light, run 1, well b: 41090; uninduced reporter light, run 1, well a: 1865; outcome: inactive
CG1638 (GeneID 43721) → induced reporter light, run 1, well a: 1.59e5; induced reporter light, run 1, well b: 1.62e5; control promoter light, run 1, well a: 3.13e5; control promoter light, run 1, well b: 3.29e5; uninduced reporter light, run 1, well a: 11855; outcome: inactive

Ordered by “induced reporter light, run 1, well a” (ascending): 3 of the entries above
RpL14 (GeneID 38983) → induced reporter light, run 1, well a: 10020; induced reporter light, run 1, well b: 10195; control promoter light, run 1, well a: 13865; control promoter light, run 1, well b: 14850; uninduced reporter light, run 1, well a: 700; outcome: inactive
Ir64a (GeneID 38616) #1 → induced reporter light, run 1, well a: 77735; induced reporter light, run 1, well b: 60255; control promoter light, run 1, well a: 93260; control promoter light, run 1, well b: 60815; uninduced reporter light, run 1, well a: 6925; outcome: inactive
lmd (GeneID 42717) → induced reporter light, run 1, well a: 1.62e5; induced reporter light, run 1, well b: 1.87e5; control promoter light, run 1, well a: 2.17e5; control promoter light, run 1, well b: 2.25e5; uninduced reporter light, run 1, well a: 12755; outcome: inactive

More entries:
Nfs1 (GeneID 34613) → induced reporter light, run 1, well a: 2.16e5; induced reporter light, run 1, well b: 2.09e5; control promoter light, run 1, well a: 1.66e5; control promoter light, run 1, well b: 1.69e5; uninduced reporter light, run 1, well a: 14150; outcome: inactive
Gsc (GeneID 33240) → induced reporter light, run 1, well a: 84760; induced reporter light, run 1, well b: 91165; control promoter light, run 1, well a: 78005; control promoter light, run 1, well b: 36985; uninduced reporter light, run 1, well a: 7595; outcome: inactive
S (GeneID 33281) → induced reporter light, run 1, well a: 47390; induced reporter light, run 1, well b: 42455; control promoter light, run 1, well a: 19850; control promoter light, run 1, well b: 12090; uninduced reporter light, run 1, well a: 7880; outcome: inactive
phr6-4 (GeneID 35322) → induced reporter light, run 1, well a: 37225; induced reporter light, run 1, well b: 39645; control promoter light, run 1, well a: 58590; control promoter light, run 1, well b: 40910; uninduced reporter light, run 1, well a: 3540; outcome: inactive
DCTN2-p50 (GeneID 44086) → induced reporter light, run 1, well a: 1.44e5; induced reporter light, run 1, well b: 1.73e5; control promoter light, run 1, well a: 1.32e5; control promoter light, run 1, well b: 1.33e5; uninduced reporter light, run 1, well a: 12895; outcome: inactive
geminin (GeneID 35563) → induced reporter light, run 1, well a: 33300; induced reporter light, run 1, well b: 29375; control promoter light, run 1, well a: 28720; control promoter light, run 1, well b: 39880; uninduced reporter light, run 1, well a: 1755; outcome: inactive
slow (GeneID 38540) #1 → induced reporter light, run 1, well a: 1.35e5; induced reporter light, run 1, well b: 1.41e5; control promoter light, run 1, well a: 1.04e5; control promoter light, run 1, well b: 56135; uninduced reporter light, run 1, well a: 12230; outcome: inactive
slow (GeneID 38540) #2 → induced reporter light, run 1, well a: 2.07e5; induced reporter light, run 1, well b: 2.55e5; control promoter light, run 1, well a: 2.90e5; control promoter light, run 1, well b: 2.73e5; uninduced reporter light, run 1, well a: 12480; outcome: inactive
Ak2 (GeneID 37834) → induced reporter light, run 1, well a: 1.51e5; induced reporter light, run 1, well b: 1.80e5; control promoter light, run 1, well a: 1.48e5; control promoter light, run 1, well b: 1.45e5; uninduced reporter light, run 1, well a: 11440; outcome: inactive
RpL32 (GeneID 43573) → induced reporter light, run 1, well a: 7945; induced reporter light, run 1, well b: 6465; control promoter light, run 1, well a: 14480; control promoter light, run 1, well b: 12025; uninduced reporter light, run 1, well a: 575; outcome: inactive
Pebp1 (GeneID 42644) → induced reporter light, run 1, well a: 2.21e5; induced reporter light, run 1, well b: 2.07e5; control promoter light, run 1, well a: 2.08e5; control promoter light, run 1, well b: 2.18e5; uninduced reporter light, run 1, well a: 14295; outcome: inactive
tobi (GeneID 43072) → induced reporter light, run 1, well a: 1.51e5; induced reporter light, run 1, well b: 1.25e5; control promoter light, run 1, well a: 1.52e5; control promoter light, run 1, well b: 2.09e5; uninduced reporter light, run 1, well a: 11630; outcome: inactive
